These are yes or no findings as the source states them, for the method shown. In cells and extracts the contact can be indirect. Some binding calls cover weakened binding; strength is not graded here.
Key:
[1] = target: p110β (PI3K catalytic subunit β, endogenous, in U87MG cell lysate) (human) (UniProt P42338); assay: co-immunoprecipitation from U87MG cell lysate, immunoblot
[2] = target: p110β (PI3K catalytic subunit β, endogenous, in U87MG cell lysate) (human) (UniProt P42338); assay: co-immunoprecipitation of Cx43 and p110β in U87MG cells (FIG. 33F legend)

Sequences of proteins named here, by UniProt entry; tags and fusion partners are left off. Residues count along the entry.
UniProt P42338: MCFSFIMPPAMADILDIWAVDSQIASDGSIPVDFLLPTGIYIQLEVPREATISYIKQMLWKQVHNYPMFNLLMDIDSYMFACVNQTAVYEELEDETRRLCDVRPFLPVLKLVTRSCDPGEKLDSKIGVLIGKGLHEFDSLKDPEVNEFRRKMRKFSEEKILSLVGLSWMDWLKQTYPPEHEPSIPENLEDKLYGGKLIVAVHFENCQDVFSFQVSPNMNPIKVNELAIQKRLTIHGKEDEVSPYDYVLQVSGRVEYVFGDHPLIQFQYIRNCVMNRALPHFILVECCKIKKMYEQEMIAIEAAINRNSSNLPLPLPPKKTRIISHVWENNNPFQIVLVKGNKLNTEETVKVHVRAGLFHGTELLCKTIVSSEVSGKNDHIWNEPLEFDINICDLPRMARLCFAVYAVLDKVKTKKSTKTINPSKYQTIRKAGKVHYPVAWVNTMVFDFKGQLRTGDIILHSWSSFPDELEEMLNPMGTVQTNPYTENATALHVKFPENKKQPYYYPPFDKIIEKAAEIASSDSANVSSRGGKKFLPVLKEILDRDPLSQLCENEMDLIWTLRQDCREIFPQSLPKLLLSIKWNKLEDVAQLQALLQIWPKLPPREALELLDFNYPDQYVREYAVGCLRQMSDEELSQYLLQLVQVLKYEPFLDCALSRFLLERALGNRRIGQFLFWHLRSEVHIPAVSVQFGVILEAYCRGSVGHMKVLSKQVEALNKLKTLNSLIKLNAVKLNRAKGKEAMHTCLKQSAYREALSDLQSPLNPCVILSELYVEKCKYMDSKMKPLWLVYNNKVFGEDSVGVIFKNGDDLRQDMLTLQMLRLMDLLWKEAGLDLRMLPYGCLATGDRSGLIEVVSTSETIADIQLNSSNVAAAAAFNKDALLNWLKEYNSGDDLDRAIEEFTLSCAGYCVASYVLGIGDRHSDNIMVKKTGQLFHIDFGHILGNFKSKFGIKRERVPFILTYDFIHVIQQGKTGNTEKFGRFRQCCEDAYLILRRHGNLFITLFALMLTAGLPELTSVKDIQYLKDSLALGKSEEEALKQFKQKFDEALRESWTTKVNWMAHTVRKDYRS
UniProt P17302, residues 2-382: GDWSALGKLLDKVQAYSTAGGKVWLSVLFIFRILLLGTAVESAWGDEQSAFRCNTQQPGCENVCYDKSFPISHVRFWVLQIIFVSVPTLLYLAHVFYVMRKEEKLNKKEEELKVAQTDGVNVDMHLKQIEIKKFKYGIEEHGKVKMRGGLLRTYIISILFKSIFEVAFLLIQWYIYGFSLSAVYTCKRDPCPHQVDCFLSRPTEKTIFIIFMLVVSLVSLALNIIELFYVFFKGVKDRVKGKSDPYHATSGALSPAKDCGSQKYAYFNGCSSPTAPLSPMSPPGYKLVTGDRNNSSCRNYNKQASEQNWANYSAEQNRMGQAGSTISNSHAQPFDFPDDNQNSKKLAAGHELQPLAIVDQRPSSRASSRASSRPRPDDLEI

connexin 43 (endogenous, in U87MG cell lysate) (from UniProt P17302 2-382)
binding [1]: binds | binding [2]: binds

Reference: patent US20240075093A1, “COMPOSITIONS AND METHODS OF TREATING A PI3K MEDIATED DISEASE” (VIRGINIA TECH INTELLECTUAL PROPERTIES, INC., priority 2020, published 2024)
